From paper PMC10182284, “Rotary properties of hybrid F1-ATPases consisting of subunits from different species” (iScience, 2023)
No constants are given. Whether binding was seen depends on the method and setting. Some binding calls cover weakened binding; strength is not graded here.

By UniProt entry, the sequences of proteins in these tests, tags left out. Residues count along the entry.
UniProt P00829, residues 47-528: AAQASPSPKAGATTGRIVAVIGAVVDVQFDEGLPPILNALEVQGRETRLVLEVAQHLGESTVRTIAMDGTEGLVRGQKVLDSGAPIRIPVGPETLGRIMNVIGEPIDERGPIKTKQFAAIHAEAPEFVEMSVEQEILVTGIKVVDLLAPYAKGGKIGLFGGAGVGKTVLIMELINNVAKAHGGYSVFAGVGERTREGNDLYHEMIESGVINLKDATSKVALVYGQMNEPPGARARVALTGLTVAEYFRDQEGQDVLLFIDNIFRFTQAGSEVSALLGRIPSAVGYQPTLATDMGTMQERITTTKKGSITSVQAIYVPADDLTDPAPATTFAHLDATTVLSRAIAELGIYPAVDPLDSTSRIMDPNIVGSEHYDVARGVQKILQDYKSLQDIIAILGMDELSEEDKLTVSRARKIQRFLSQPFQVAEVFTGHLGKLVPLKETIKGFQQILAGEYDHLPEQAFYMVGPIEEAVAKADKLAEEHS
UniProt A1B8P0: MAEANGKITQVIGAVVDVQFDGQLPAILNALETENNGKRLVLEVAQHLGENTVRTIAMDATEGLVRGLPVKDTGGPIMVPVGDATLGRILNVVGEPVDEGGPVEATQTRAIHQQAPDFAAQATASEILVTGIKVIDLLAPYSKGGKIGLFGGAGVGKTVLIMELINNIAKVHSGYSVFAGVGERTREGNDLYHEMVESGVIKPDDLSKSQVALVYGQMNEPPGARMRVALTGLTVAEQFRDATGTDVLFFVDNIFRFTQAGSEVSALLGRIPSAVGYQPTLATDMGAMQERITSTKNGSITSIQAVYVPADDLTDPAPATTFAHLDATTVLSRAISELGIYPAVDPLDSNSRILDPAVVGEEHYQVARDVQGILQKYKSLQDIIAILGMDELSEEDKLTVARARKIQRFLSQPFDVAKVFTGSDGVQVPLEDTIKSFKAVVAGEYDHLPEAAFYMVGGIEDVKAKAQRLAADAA
UniProt P09219: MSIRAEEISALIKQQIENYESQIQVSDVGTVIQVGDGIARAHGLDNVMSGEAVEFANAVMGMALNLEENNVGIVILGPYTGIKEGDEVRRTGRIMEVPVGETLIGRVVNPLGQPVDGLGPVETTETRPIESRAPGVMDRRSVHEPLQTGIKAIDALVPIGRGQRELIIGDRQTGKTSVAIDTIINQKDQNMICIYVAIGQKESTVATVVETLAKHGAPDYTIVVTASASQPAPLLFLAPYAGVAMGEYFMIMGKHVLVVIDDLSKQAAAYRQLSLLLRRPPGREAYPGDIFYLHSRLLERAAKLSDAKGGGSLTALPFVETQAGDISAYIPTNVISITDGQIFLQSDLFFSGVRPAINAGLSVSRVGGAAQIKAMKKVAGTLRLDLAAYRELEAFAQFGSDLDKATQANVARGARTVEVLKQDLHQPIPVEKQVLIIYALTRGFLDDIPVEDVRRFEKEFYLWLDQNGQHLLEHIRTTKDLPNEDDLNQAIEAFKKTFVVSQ
UniProt A1B8N8: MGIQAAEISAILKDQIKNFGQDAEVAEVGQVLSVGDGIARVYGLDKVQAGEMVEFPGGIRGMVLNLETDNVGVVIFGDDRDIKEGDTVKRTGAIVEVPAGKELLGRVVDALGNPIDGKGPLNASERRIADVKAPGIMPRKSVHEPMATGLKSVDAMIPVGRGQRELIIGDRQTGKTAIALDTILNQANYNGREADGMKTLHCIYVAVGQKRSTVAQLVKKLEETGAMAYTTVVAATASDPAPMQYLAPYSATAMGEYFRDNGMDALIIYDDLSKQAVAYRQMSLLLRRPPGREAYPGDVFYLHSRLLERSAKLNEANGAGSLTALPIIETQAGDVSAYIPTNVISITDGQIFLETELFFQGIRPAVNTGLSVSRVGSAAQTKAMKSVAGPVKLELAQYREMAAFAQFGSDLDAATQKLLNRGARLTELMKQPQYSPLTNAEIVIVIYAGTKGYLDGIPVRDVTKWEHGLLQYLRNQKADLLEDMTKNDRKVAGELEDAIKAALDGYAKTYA

Assays:
[1] = target: β subunit of bovine mitochondrial F1-ATPase (bMF1) (bovine) (UniProt P00829); test: co-expression and co-purification, SDS-PAGE; subunits co-expressed from one plasmid in E. coli; F1 complex purified as for bMF1 (ref. 26) or PdF1 (ref. 27); conformation of α3β3γ1 confirmed with SDS-PAGE
[2] = target: β subunit of F1-ATPase from Paracoccus denitrificans (PdF1) (Paracoccus denitrificans) (UniProt A1B8P0); test: as above

Row | binding [1] | binding [2] | Substance
1 | binds | – | α subunit of F1-ATPase from thermophilic Bacillus PS3 (TF1) (from UniProt P09219 1-502)
2 | binds | binds | α subunit of F1-ATPase from Paracoccus denitrificans (PdF1) (from UniProt A1B8N8 1-511)
